This note sets out measurements from patent publication US20200157519A1.

Chains of the proteins cited; added tags and fusions are not shown. Lines headed by an entry give the natural chain unless they say otherwise; changes in a name come on top.
UniProt P02671: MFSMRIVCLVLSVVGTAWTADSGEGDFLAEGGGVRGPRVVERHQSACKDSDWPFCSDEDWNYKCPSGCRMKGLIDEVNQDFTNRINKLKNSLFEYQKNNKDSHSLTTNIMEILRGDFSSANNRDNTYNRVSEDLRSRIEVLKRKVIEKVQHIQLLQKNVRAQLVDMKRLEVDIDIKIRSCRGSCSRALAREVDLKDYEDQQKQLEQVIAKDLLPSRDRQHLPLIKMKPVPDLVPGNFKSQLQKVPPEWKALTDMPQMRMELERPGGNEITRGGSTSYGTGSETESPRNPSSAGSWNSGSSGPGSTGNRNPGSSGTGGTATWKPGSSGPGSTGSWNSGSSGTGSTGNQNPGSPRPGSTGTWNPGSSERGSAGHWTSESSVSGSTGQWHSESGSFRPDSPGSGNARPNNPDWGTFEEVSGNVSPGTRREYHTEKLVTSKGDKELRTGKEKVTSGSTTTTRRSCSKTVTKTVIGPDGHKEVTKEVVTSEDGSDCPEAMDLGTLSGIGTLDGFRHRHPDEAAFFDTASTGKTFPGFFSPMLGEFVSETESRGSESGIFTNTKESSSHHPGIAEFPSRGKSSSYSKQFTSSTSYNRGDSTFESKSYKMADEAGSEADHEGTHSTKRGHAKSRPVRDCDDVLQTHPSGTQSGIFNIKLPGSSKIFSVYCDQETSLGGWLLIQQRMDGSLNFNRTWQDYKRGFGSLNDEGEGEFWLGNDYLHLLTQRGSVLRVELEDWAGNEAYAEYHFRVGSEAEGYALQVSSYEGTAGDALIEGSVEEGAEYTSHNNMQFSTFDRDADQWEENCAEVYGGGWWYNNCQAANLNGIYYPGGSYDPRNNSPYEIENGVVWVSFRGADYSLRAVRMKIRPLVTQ
UniProt P02675: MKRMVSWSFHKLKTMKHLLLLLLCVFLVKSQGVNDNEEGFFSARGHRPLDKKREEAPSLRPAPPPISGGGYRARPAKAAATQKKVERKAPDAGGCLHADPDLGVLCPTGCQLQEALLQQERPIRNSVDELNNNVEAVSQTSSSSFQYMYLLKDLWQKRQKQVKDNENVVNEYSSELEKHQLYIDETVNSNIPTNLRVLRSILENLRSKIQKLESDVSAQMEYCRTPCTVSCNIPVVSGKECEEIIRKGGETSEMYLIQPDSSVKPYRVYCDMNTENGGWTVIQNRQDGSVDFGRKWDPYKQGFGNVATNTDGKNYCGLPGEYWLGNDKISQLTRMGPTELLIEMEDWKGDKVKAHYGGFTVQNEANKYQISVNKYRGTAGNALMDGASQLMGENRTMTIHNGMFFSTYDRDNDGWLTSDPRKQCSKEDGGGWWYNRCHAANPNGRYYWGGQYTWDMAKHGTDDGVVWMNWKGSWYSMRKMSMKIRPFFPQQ
UniProt P02679: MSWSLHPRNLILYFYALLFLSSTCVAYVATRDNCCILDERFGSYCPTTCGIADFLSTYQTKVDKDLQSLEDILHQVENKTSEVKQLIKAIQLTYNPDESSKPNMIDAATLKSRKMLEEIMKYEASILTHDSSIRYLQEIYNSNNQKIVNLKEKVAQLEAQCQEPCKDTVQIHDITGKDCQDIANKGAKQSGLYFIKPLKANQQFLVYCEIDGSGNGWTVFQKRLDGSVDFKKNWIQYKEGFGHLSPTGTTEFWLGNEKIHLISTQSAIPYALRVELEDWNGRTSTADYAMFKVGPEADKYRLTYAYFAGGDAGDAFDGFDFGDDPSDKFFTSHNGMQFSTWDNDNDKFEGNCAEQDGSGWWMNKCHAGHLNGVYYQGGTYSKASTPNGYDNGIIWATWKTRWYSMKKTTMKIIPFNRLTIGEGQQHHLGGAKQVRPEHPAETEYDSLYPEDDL

No constants are given. Whether binding was seen depends on the method and setting. Some binding calls cover weakened binding; strength is not graded here.

The assay concerns the target human fibrin (human fibrinogen coated on the plate and treated with thrombin) (human) (UniProt P02671+P02675+P02679). The experiment in a line: ELISA, HRP-conjugated polyclonal rabbit anti-reteplase antibody. In general terms: In an ELISA, binding on a coated surface is turned into a signal by an enzyme label.

B1: recombinant (3D5 VL-(G4S)3-VH scFv α fibrin)-reteplase polypeptide (protein)
chain: DIQMTQSPSSLSASVGDRVTITCRASQDVSNNVAWYQQKPGKAPKLLIFWSPWLYSGVPSRFSGSGSGTDFTLTISSLQPEDFATYYCQQGWDSPVTFGQGTKVEIKRGSTSGSGKPGSGEGSTKGEVQLVESGGGLVQPGGSLRLSCAASGFTISDFGIHWVRQAPGKGLEWVASIWPSGGYTYYADSVKGRFTISADTSKNTAYLQMNSLRAEDTAVYYCARSWFYSWYDYWGQGTLVTVSSASGGGGSGGGGSGGGGSSYQGNSDCYFGNGSAYRGTHSLTESGASCLPWNSMILIGKVYTAQNPSAQALGLGKHNYCRNPDGDAKPWCHVLKNRRLTWEYCDVPSCSTCGLRQYSQPQFRIKGGLFADIASHPWQAAIFAKHRRSPGERFLCGGILISSCWILSAAHCFQERFPPHHLTVILGRTYRVVPGEEEQKFEVEKYIVHKEFDDDTYDNDIALLQLKSDSSRCAQESSVVRTVCLPPADLQLPDWTECELSGYGKHEALSPFYSERLKEAHVRLYPSSRCTSQHLLNRTVTDNMLCAGDTRSGGPQANLHDACQGDSGGPLVCLNDGRMTLVGIISWGLGCGQKDVPGVYTKVTNYLDWIRDNMRPA
In the case of B1, the binding result is recorded as “binds”.
